Measurements taken from PubChem BioAssay AID651647 (Sanford-Burnham Center for Chemical Genomics, 2012).
Some of the results follow.

Assay: blockers of MT1-MMP proenzyme processing, primary screen, HT1080 RFP-PRO-GFP cells, GFP/RFP fluorescence (AID 651647)
Conditions: GFP/RFP ratio fluorescence, overnight, RFP expression control read, at 20 µM
Procedure, shortened: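 Read-out: GFP/RFP fluorescence ratio; Test system: RFP-PRO-GFP reporter HT1080 cells; Compound dosing: single-point 20 µM compound, 1% DMSO; Times: overnight compound exposure at 37 °C.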

| Compound | RFP signal change |
| --- | --- |
| CCC(=O)N(c1ccccc1)C1(COC)CCN(CCn2nnn(CC)c2=O)CC1 | 2.95% |
| CCC(=O)N(c1ccccc1)C1(COC)CCN(CCc2cccs2)CC1 | 0.502% |
